# Primary screen of a compound library

Chains of the proteins cited; added tags and fusions are not shown.
UniProt E9BF75, entry or part of it: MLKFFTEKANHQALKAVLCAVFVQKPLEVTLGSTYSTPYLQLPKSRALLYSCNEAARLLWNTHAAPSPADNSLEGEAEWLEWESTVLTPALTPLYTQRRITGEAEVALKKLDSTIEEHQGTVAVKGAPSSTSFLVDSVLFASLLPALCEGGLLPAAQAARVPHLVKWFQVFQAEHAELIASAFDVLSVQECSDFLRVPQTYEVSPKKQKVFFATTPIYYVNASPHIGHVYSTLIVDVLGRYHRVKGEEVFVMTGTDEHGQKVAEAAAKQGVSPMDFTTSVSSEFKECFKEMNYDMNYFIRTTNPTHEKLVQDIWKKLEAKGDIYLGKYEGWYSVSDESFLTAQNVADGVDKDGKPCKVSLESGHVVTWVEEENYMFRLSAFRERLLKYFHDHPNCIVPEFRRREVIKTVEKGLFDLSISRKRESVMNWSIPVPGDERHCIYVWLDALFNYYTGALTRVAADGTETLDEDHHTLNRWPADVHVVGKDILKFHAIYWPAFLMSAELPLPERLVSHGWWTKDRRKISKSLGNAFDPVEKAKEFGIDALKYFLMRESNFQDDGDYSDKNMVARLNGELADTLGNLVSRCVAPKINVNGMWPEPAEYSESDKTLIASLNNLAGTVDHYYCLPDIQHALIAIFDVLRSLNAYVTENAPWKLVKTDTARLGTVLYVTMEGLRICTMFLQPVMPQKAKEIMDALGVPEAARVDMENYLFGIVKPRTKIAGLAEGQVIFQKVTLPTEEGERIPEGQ

Source: ChEMBL document CHEMBL3988442, “University of Dundee, Small-Polar-MMV Screening Library” (2021).

A: 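Primary screen of methionyl-tRNA synthetase; the read-out is not stated. Target: Methionyl-tRNA synthetase (putative), Leishmania donovani (UniProt E9BF75). The test concentration is not given. The values are filed as inhibition. About 68,000 compounds were tested under these conditions; 0.035% (about 24) showed 50% or more at least once.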
B: 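Assay on Mycobacterium tuberculosis, filed only as a heat shock assay from Cornell; the read-out is not stated. The concentration is filed as 10 mM, unlikely as a test dose, so the dose is not known. Direction is inferred from retests: higher values go with stronger inhibition. Of about 69,000 compounds tested this way, about 930 (1.4%) reached 50% or more in at least one test.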

All values are in %. The record does not define 0% and 100%; most values in the screen are far below 50% and negative numbers occur (in some assays of this library far below -100). Compounds were drawn at random from those tested, without regard to their results. A dash means the value is not listed here; it may have been measured.

| Compound | A | B |
|---|---|---|
| `CN(Cc1c(F)cccc1Cl)C(=O)CN(C)C1CCc2ccccc21` (configuration not stated) | 5.249% | 4.177% |
| `Cc1cc(N2CCC(N(C)C(=O)c3cccs3)CC2)nc(C)n1` | 12.72% | 13.87% |
| `N#Cc1ccc(CNc2cnn(CCN3CCOCC3)c2)cc1` | 5.915% | -10.7% |
| `CC(C)c1nc(CN2CCOC(Cn3cccn3)C2)no1` (configuration not stated) | 7.229% | -21.3% |
| `COc1cc(N(C)Cc2cccc(-n3cccn3)c2)nc(N)n1` | 11.55% | -21.52% |
| `O=C(O)C(F)(F)F.[H][C@@]12CCN(c3ccc(C)nn3)C[C@]1([H])CN(C(=O)c1ccn(C)n1)C2` | - | -11.23% |
| `Cn1ccc(NC(=O)CN2CCC(Oc3cnccn3)CC2)n1` | 6.299% | -1.07% |
| `CN(CCc1ccccc1)c1cnn(CC(=O)N2CCOCC2)c(=O)c1` | 9.067% | -3.027% |
| `CC(=O)OCC1CCCCN1C(=O)c1ccc(Cn2ccnc2)o1` (configuration not stated) | 7.117% | -21.82% |
| `O=C(COc1ccccc1)NCC1CCN(Cc2ccsc2)CC1` | 12.96% | -1.153% |
| `CS(=O)(=O)N1CCC(Cc2cnc(Br)cn2)CC1` | 18.09% | -12.47% |
| `Cc1cnc(N2CCc3ncnc(N4CCN(C)CC4)c3CC2)nc1.O=C(O)C(F)(F)F` | - | 4.768% |
| `CN(C)C(=O)c1cn[nH]c1C1CCCN1Cc1c[nH]cn1` (configuration not stated) | 16.67% | -13.89% |
| `CC(=O)N1CCC(c2nc3ccc(-c4cccc(F)c4)cn3n2)CC1` | 11.54% | 36.61% |
| `COc1c(CNCc2ccc(OCC(N)=O)cc2)c(C)nn1C` | 11.85% | 5.298% |
| `Cc1cc(C)cc(NC(=O)N(CCC#N)CCCN(C)C)c1` | 14.99% | 18.37% |
| `CCN(CC1CCOC1)C(=O)CCc1nc(C(C)(C)C)no1` (configuration not stated) | 9.943% | 10.55% |
| `CN(Cc1ccccc1CN1CCCC1)C(=O)c1c(O)cccc1O` | 2.892% | 10.71% |
| `Cc1n[nH]c(C2CN(CC(=O)NCCc3ccccc3C)CCO2)n1` (configuration not stated) | 19.76% | -21.48% |
| `c1cncc(CN2CCc3c(nnn3CC3CC3)C2COCC2CC2)c1` (configuration not stated) | 9.15% | - |
| `COc1cccc(-c2noc(C3CCN(Cc4ccc(C)cc4)C3)n2)c1` (configuration not stated) | 8.01% | - |
| `COc1ccccc1CCN1CCCC(CN(C)Cc2cc(C)n[nH]2)C1` (configuration not stated) | 15.68% | -13.44% |
| `CC(C)C(Sc1cccs1)C(=O)NCc1cccnc1` (configuration not stated) | 13.2% | 3.275% |
| `CNc1cccc(CC2COCCN(C(=O)c3cccnc3)C2)n1` (configuration not stated) | 13.71% | -1.893% |
| `CCc1nsc(NC2CCCn3nc(CC)nc32)n1` (configuration not stated) | 15.61% | -11.61% |
| `O=C1CO[C@H]2CN(Cc3cccc4[nH]ccc34)C[C@@H]2N1C1CCOCC1` | 9.032% | - |
| `O=C1COC2(CCN(C(=O)c3ccoc3)CC2)CN1Cc1ccccn1` | 2.5% | - |
| `CC(C)CN1Cc2nc(N)ncc2C1=O` | 11.05% | 13.11% |
| `CNC(=O)c1cccnc1NCc1ccc(-n2cccn2)cc1` | 13.6% | -135% |
| `CN(C)c1cc(C(=O)NCC2(c3cccc(F)c3)CCOCC2)ccn1` | 7.853% | -8.588% |
| `N#CCCN(Cc1ccco1)C(=O)CCCc1ccccc1` | 0.3436% | -6.025% |
| `COc1ccc(-c2nnc([C@H]3CCN(C4CCC4)C3)o2)cc1` | 8.475% | 10.13% |
| `CCc1nc(C)c(C2CC(=O)Nc3c2c(-c2ccccn2)nn3C)[nH]1` (configuration not stated) | 4.53% | 0.5898% |
| `Cc1cc(C2CCCN(Cc3ncc(C)o3)C2)n[nH]1` (configuration not stated) | 11.71% | -18.71% |
| `O=C(C1CCOC1)N1CCc2ncnc(C3CC3)c2CC1` (configuration not stated) | 11.4% | -7.729% |
| `COCC1CN(Cc2ccc(C)o2)Cc2cn(C)nc21` (configuration not stated) | 16.32% | - |
| `Cc1oc(-c2cccc(F)c2F)nc1CN(C)CCC(C)(C)O` | 9.044% | 0.2437% |
| `[H][C@]12CN(C(=O)C3CC(F)(F)C3)C[C@@]1([H])OCCN(S(C)(=O)=O)C2` | - | 22.98% |
| `O=C(O)C(F)(F)F.O=C(O)C(F)(F)F.[H][C@]12C[C@@H](Cn3cncn3)N(C)[C@@]1([H])CCN(Cc1cccc(C#N)c1)C2` | - | -1.689% |
| `[H][C@@]12CN(Cc3cccnc3)C[C@]1([H])N(CCCN1CCOCC1)C(=O)O2` | - | -3.216% |
| `COc1cc(OC)cc(N2CCC(NCc3ccsc3)C2=O)c1` (configuration not stated) | 9.699% | -30.98% |
| `CCOc1cc(C)ccc1NS(=O)(=O)c1cc(C)c(C(=O)O)s1` | 9.964% | -15.19% |
| `CCOc1c(F)cccc1C(=O)N(c1cccnc1)C(C)C` | 21.24% | -3.076% |
| `[H][C@@]12CCCO[C@]1([H])[C@H](n1cccn1)CN2Cc1nccs1` | - | 8.685% |
| `c1ccc(-c2nc(CNCCn3cccn3)cs2)cc1` | 8.877% | 37.88% |
| `Cn1ccc(C(=O)N2CCCC2c2ccc3c(c2)OCCO3)cc1=O` (configuration not stated) | - | -5.526% |
| `COc1ccc(NC(=O)CSc2nncn2-n2cccc2)c(OC)c1` | 2.356% | 4.266% |
| `Cc1nc(C)n(CC2CN(Cc3nccs3)Cc3nccn3C2)n1.O=C(O)C(F)(F)F` (configuration not stated) | - | -17.49% |
| `Cc1ncc(CN2CCc3nc4cc(C(C)(C)C)nn4c(O)c3C2)n1C` | 7.447% | 5.694% |
| `COc1cccc([C@H]2CN(C(=O)c3cc(C)on3)C[C@@H]2N)c1` | 9.045% | -0.4367% |
| `Cc1nc(N2CCC3(CCCN(CC4CC4)C3=O)C2)c2sccc2n1` (configuration not stated) | 10.92% | 28.25% |
| `Cn1cccc1C(=O)N1Cc2c(CN3CCCCC3)nn(C)c2C1` | -1.875% | -1.003% |
| `NC(=O)C1CCN(C(=O)CCCc2nnc(-c3ccccc3)o2)C1` (configuration not stated) | 9.639% | 0.9576% |
| `Cc1nccc([C@H]2C[C@@H]3CCN(C(=O)c4c(C)noc4C)C[C@H]3O2)n1` | 7.843% | - |
| `c1ccc(-c2nc(CN3CCCC(Cn4cncn4)C3)co2)cc1` (configuration not stated) | 7.639% | -0.687% |
| `Cc1n[nH]c(C2CN(Cc3csc(C4CCCCC4)n3)CCO2)n1` (configuration not stated) | 13.35% | 10.67% |
| `O=C(CC1=CCCCC1)NCc1ccnc(OC2CCOCC2)c1` | 5.866% | 1.848% |
| `CC(=O)N1C[C@@H](c2ccsc2)[C@@H]2CN(CC3CCCCC3)CC[C@@H]21` | 8.495% | - |
| `O=S(=O)(c1ccccc1)N1CC[C@]2(C[C@@H](OCC3CC3)CO2)C1` | 4.667% | -12.31% |
| `CN(CCc1ncnn1C1Cc2ccccc2C1)C1CCS(=O)(=O)C1` (configuration not stated) | 22.29% | -23.35% |
| `O=C1CC[C@]2(CC[C@@H](NC3CCOC3)CC2)N1Cc1ccccc1` (some centres not stated) | 12.78% | - |
| `[H][C@]12CN(c3ncc(CC)cn3)C[C@@]1([H])S(=O)(=O)CC[C@@H]2C(=O)N(C)C` | - | 31.69% |
| `CC(c1cccnc1)N1CCN(CCc2ccccn2)CC1` (configuration not stated) | 20.14% | -42.39% |
| `CC(C)N(C)C(=O)c1ccc(Cl)c(NC(=O)COCC2CC2)c1` | 12.58% | -13.19% |
| `Cc1ccc(C)c(S(=O)(=O)CCN2CCCC2Cn2cccn2)c1` (configuration not stated) | 13.18% | 14.08% |
| `Cc1ccc(C)c(S(=O)(=O)NCCOc2ccc3nnc(C)n3n2)c1` | 13.24% | 0.1315% |
| `O=C(NCC(O)c1cccs1)c1sccc1OC(F)F` (configuration not stated) | 11.08% | 6.283% |
| `O=C1CCC2(CCCN(C(=O)Cc3ccccc3)C2)N1` (configuration not stated) | 8.333% | 2.112% |
| `Cc1[nH]ccc1C(=O)N[C@H]1CN(CCO)C[C@@H]1C1CC1` | -3.064% | 3.034% |
| `O=C(N1CCC(Oc2ccncc2)C1)C1(c2ccc(F)cc2)CC1` (configuration not stated) | 4.032% | -8.689% |
| `CN(Cc1cc[nH]n1)C(=O)c1cn(Cc2c(F)cccc2F)nn1` | 8.579% | -1.699% |
| `O=C1CN(C(=O)CC2C(=O)NCCN2CC2CCCCC2)CCN1` (configuration not stated) | 11.18% | -150.7% |
| `O=C(NCc1ccco1)[C@@]12CCO[C@@H]1CCN(C1CCC1)C2` | 17.04% | - |
| `CCN(Cc1nonc1C)C(=O)Cn1nc(C(F)(F)F)cc1C1CC1` | -19.35% | -20.55% |
| `CC(C)c1nc(C2CCCN2Cc2nccn2CC(F)(F)F)no1` (configuration not stated) | 15.06% | -17.45% |
| `[H][C@]12CC[C@]([H])(CN(Cc3[nH]cnc3C)C1)N(C(=O)CCc1cnn(C)c1)C2` | - | -11.56% |
| `COc1ccccc1CN(CCCn1ccnc1)CC1CCOC1.O=C(O)CC(O)(CC(=O)O)C(=O)O` (configuration not stated) | - | 0.5182% |
| `CN(c1ccc(C#N)cn1)C1CCCN(Cc2noc(C3CC3)n2)C1` (configuration not stated) | 8.333% | -34.86% |
| `CCCS(=O)(=O)c1ncc(CN2CCC(C)CC2)n1CC1CCCO1` (configuration not stated) | 19.85% | 1.569% |
| `Cc1cc(C2CCC2)nc(N(C)CCc2ccccn2)n1` | -2.29% | 3.707% |
| `Cc1noc([C@H]2COC[C@H]3CN(C(=O)Cc4cccc(F)c4)C[C@H]32)n1` | 17% | - |

The last 10 entries again:

Compound	A	B
O=C1CN(C(=O)CC2C(=O)NCCN2CC2CCCCC2)CCN1 (configuration not stated)	11.18%	-150.7%
O=C(NCc1ccco1)[C@@]12CCO[C@@H]1CCN(C1CCC1)C2	17.04%	-
CCN(Cc1nonc1C)C(=O)Cn1nc(C(F)(F)F)cc1C1CC1	-19.35%	-20.55%
CC(C)c1nc(C2CCCN2Cc2nccn2CC(F)(F)F)no1 (configuration not stated)	15.06%	-17.45%
[H][C@]12CC[C@]([H])(CN(Cc3[nH]cnc3C)C1)N(C(=O)CCc1cnn(C)c1)C2	-	-11.56%
COc1ccccc1CN(CCCn1ccnc1)CC1CCOC1.O=C(O)CC(O)(CC(=O)O)C(=O)O (configuration not stated)	-	0.5182%
CN(c1ccc(C#N)cn1)C1CCCN(Cc2noc(C3CC3)n2)C1 (configuration not stated)	8.333%	-34.86%
CCCS(=O)(=O)c1ncc(CN2CCC(C)CC2)n1CC1CCCO1 (configuration not stated)	19.85%	1.569%
Cc1cc(C2CCC2)nc(N(C)CCc2ccccn2)n1	-2.29%	3.707%
Cc1noc([C@H]2COC[C@H]3CN(C(=O)Cc4cccc(F)c4)C[C@H]32)n1	17%	-